Results are given in words; binding and its absence hold for the method and conditions named. Binding seen in cells or lysates may run through a third protein. These calls come from enrichment with a bait or labelling near it, and not all partners need be listed.

These results are taken from paper PMC11605229.

One assay has as its target BioID-BAG3, O95817. The assay can be described thus: proximity labelling; BioID in human AC16 cardiomyocyte cells: transfected with plasmid expressing BioID-BAG3 for 48 h, biotin for 16 h; LC-MS/MS; BAG3_Biotin vs. BioID vector only, adjusted p < 0.05; effect sizes corrected for biotin alone and for BAG3 over-expression; three replicates. The settings on record: remark: other sources report otherwise.

For a further assay, the target named is BioID-BAG3 (UniProt O95817). Described as above.

B1: LMNA, P02545 1-646 (protein)
chain: METPSQRRATRSGAQASSTPLSPTRITRLQEKEDLQELNDRLAVYIDRVRSLETENAGLRLRITESEEVVSREVSGIKAAYEAELGDARKTLDSVAKERARLQLELSKVREEFKELKARNTKKEGDLIAAQARLKDLEALLNSKEAALSTALSEKRTLEGELHDLRGQVAKLEAALGEAKKQLQDEMLRRVDAENRLQTMKEELDFQKNIYSEELRETKRRHETRLVEIDNGKQREFESRLADALQELRAQHEDQVEQYKKELEKTYSAKLDNARQSAERNSNLVGAAHEELQQSRIRIDSLSAQLSQLQKQLAAKEAKLRDLEDSLARERDTSRRLLAEKEREMAEMRARMQQQLDEYQELLDIKLALDMEIHAYRKLLEGEEERLRLSPSPTSQRSRGRASSHSSQTQGGGSVTKKRKLESTESRSSFSQHARTSGRVAVEEVDEEGKFVRLRNKSNEDQSMGNWQIKRQNGDDPLLTYRFPPKFTLKAGQVVTIWAAGAGATHSPPTDLVWKAQNTWGCGNSLRTALINSTGEEVAMRKLVRSVTVVEDDEDEDGDDLLHHHHGSHCSSSGDPAEYNLRSRTVLCGTCGQPADKASASGSGAQVGGPISSGSSASSVTVTRSYRSVGGSGGGSFGDNLVTRSY
Take B1: the binding entry with BioID-BAG3, O95817 is recorded as “binds”.

B2: FHL1 (protein, UniProt Q13642 1-323)
chain: MAEKFDCHYCRDPLQGKKYVQKDGHHCCLKCFDKFCANTCVECRKPIGADSKEVHYKNRFWHDTCFRCAKCLHPLANETFVAKDNKILCNKCTTREDSPKCKGCFKAIVAGDQNVEYKGTVWHKDCFTCSNCKQVIGTGSFFPKGEDFYCVTCHETKFAKHCVKCNKAITSGGITYQDQPWHADCFVCVTCSKKLAGQRFTAVEDQYYCVDCYKNFVAKKCAGCKNPITGKRTVSRVSHPVSKARKPPVCHGKRLPLTLFPSANLRGRHPGGERTCPSWVVVLYRKNRSLAAPRGPGLVKAPVWWPMKDNPGTTTASTAKNAP
With B2, in the assay with BioID-BAG3, the binding entry is on record as “binds”.

B3: TCOF1 (protein, UniProt Q13428 1-1488)
chain: MAEARKRRELLPLIYHHLLRAGYVRAAREVKEQSGQKCFLAQPVTLLDIYTHWQQTSELGRKRKAEEDAALQAKKTRVSDPISTSESSEEEEEAEAETAKATPRLASTNSSVLGADLPSSMKEKAKAETEKAGKTGNSMPHPATGKTVANLLSGKSPRKSAEPSANTTLVSETEEEGSVPAFGAAAKPGMVSAGQADSSSEDTSSSSDETDVEGKPSVKPAQVKASSVSTKESPARKAAPAPGKVGDVTPQVKGGALPPAKRAKKPEEESESSEEGSESEEEAPAGTRSQVKASEKILQVRAASAPAKGTPGKGATPAPPGKAGAVASQTKAGKPEEDSESSSEESSDSEEETPAAKALLQAKASGKTSQVGAASAPAKESPRKGAAPAPPGKTGPAVAKAQAGKREEDSQSSSEESDSEEEAPAQAKPSGKAPQVRAASAPAKESPRKGAAPAPPRKTGPAAAQVQVGKQEEDSRSSSEESDSDREALAAMNAAQVKPLGKSPQVKPASTMGMGPLGKGAGPVPPGKVGPATPSAQVGKWEEDSESSSEESSDSSDGEVPTAVAPAQEKSLGNILQAKPTSSPAKGPPQKAGPVAVQVKAEKPMDNSESSEESSDSADSEEAPAAMTAAQAKPALKIPQTKACPKKTNTTASAKVAPVRVGTQAPRKAGTATSPAGSSPAVAGGTQRPAEDSSSSEESDSEEEKTGLAVTVGQAKSVGKGLQVKAASVPVKGSLGQGTAPVLPGKTGPTVTQVKAEKQEDSESSEEESDSEEAAASPAQVKTSVKKTQAKANPAAARAPSAKGTISAPGKVVTAAAQAKQRSPSKVKPPVRNPQNSTVLARGPASVPSVGKAVATAAQAQTGPEEDSGSSEEESDSEEEAETLAQVKPSGKTHQIRAALAPAKESPRKGAAPTPPGKTGPSAAQAGKQDDSGSSSEESDSDGEAPAAVTSAQVIKPPLIFVDPNRSPAGPAATPAQAQAASTPRKARASESTARSSSSESEDEDVIPATQCLTPGIRTNVVTMPTAHPRIAPKASMAGASSSKESSRISDGKKQEGPATQVSKKNPASLPLTQAALKVLAQKASEAQPPVARTQPSSGVDSAVGTLPATSPQSTSVQAKGTNKLRKPKLPEVQQATKAPESSDDSEDSSDSSSGSEEDGEGPQGAKSAHTLGPTPSRTETLVEETAAESSEDDVVAPSQSLLSGYMTPGLTPANSQASKATPKLDSSPSVSSTLAAKDDPDGKQEAKPQQAAGMLSPKTGGKEAASGTTPQKSRKPKKGAGNPQASTLALQSNITQCLLGQPWPLNEAQVQASVVKVLTELLEQERKKVVDTTKESSRKGWESRKRKLSGDQPAARTPRSKKKKKLGAGEGGEASVSPEKTSTTSKGKAKRDKASGDVKEKKGKGSLGSQGAKDEPEEELQKGMGTVEGGDQSNPKSKKEKKKSDKRKKDKEKKEKKKKAKKASTKDSESPSQKKKKKKKKTAEQTV
For B3, the binding entry with BioID-BAG3 is “binds”.

B4: NQO2 (protein, UniProt P16083 1-231)
chain: MAGKKVLIVYAHQEPKSFNGSLKNVAVDELSRQGCTVTVSDLYAMNLEPRATDKDITGTLSNPEVFNYGVETHEAYKQRSLASDITDEQKKVREADLVIFQFPLYWFSVPAILKGWMDRVLCQGFAFDIPGFYDSGLLQGKLALLSVTTGGTAEMYTKTGVNGDSRYFLWPLQHGTLHFCGFKVLAPQISFAPEIASEEERKGMVAAWSQRLQTIWKEEPIPCTAHWHFGQ
Turning to B4, the binding entry with BioID-BAG3 is given as “binds”.

B5: DNTTIP2 (protein, UniProt Q5QJE6 1-756)
chain: MVVTRSARAKASIQAASAESSGQKSFAANGIQAHPESSTGSDARTTAESQTTGKQSLIPRTPKARKRKSRTTGSLPKGTEPSTDGETSEAESNYSVSEHHDTILRVTRRRQILIACSPVSSVRKKPKVTPTKESYTEEIVSEAESHVSGISRIVLPTEKTTGARRSKAKSLTDPSQESHTEAISDAETSSSDISFSGIATRRTRSMQRKLKAQTEKKDSKIVPGNEKQIVGTPVNSEDSDTRQTSHLQARSLSEINKPNFYNNDFDDDFSHRSSENILTVHEQANVESLKETKQNCKDLDEDANGITDEGKEINEKSSQLKNLSELQDTSLQQLVSQRHSTPQNKNAVSVHSNLNSEAVMKSLTQTFATVEVGRWNNNKKSPIKASDLTKFGDCGGSDDEEESTVISVSEDMNSEGNVDFECDTKLYTSAPNTSQGKDNSVLLVLSSDESQQSENSENEEDTLCFVENSGQRESLSGDTGSLSCDNALFVIDTTPGMSADKNFYLEEEDKASEVAIEEEKEEEEDEKSEEDSSDHDENEDEFSDEEDFLNSTKAKLLKLTSSSIDPGLSIKQLGGLYINFNADKLQSNKRTLTQIKEKKKNELLQKAVITPDFEKNHCVPPYSESKYQLQKKRRKERQKTAGDGWFGMKAPEMTNELKNDLKALKMRASMDPKRFYKKNDRDGFPKYFQIGTIVDNPADFYHSRIPKKQRKRTIVEELLADSEFRRYNRRKYSEIMAEKAANAAGKKFRKKKKFRN
With B5, in the assay with BioID-BAG3, the binding entry is on record as “binds”.

B6: VPS4B (protein, UniProt O75351 1-444)
chain: MSSTSPNLQKAIDLASKAAQEDKAGNYEEALQLYQHAVQYFLHVVKYEAQGDKAKQSIRAKCTEYLDRAEKLKEYLKNKEKKAQKPVKEGQPSPADEKGNDSDGEGESDDPEKKKLQNQLQGAIVIERPNVKWSDVAGLEGAKEALKEAVILPIKFPHLFTGKRTPWRGILLFGPPGTGKSYLAKAVATEANNSTFFSISSSDLVSKWLGESEKLVKNLFQLARENKPSIIFIDEIDSLCGSRSENESEAARRIKTEFLVQMQGVGVDNDGILVLGATNIPWVLDSAIRRRFEKRIYIPLPEPHARAAMFKLHLGTTQNSLTEADFRELGRKTDGYSGADISIIVRDALMQPVRKVQSATHFKKVRGPSRADPNHLVDDLLTPCSPGDPGAIEMTWMDVPGDKLLEPVVSMSDMLRSLSNTKPTVNEHDLLKLKKFTEDFGQEG
As to B6, the binding entry with BioID-BAG3 was “binds”.
